Several values for one entry are separate records, joined by “and”; a condition that tells them apart may be missing. Equal entries are not always repeated. Among all 59,000 compounds or so, about 35 (0.06%) were called active. Inconclusive means that the source gave no clear call. Such entries were picked first, then a sample of the others. Cut-off read from the data, not from the text of the source: active = max dye-equivalent concentration above about 10 nM; inconclusive = between about 1.1 nM and that limit; inactive = weaker than that.
Assay: qHTS Assay for Spectroscopic Profiling in Texas Red Spectral Region
Conditions: Compound fluorescence, Texas Red channel, 547/618 nm; stronger effect = higher value
Summary of the method: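 qHTS profiling of intrinsic compound fluorescence; 100 mM Tris pH 8.0; 15 min RT; ex 547 / em 618 nm; response expressed as Texas Red dye-equivalent concentration from six-point plate standard.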

SMILES | max dye-equivalent concentration
COc1ccc(Nc2nc(N)nc(SCc3nnc(C)s3)n2)cc1 | inconclusive: 1.6e-09 M
O=c1c(-c2cccs2)nc2cncnc2n1-c1ccccc1 | inactive
c1ccc(-c2nnc(CSc3nnc(-c4cccs4)o3)o2)cc1 | inconclusive: 1.6e-09 M
O=C(CSc1nnc(-c2ccncc2)n1C1CCCCC1)Nc1ccccc1 | inconclusive: 1.8e-09 M
CCOC(=O)c1cc(-c2cccs2)nn1CCC#N | inconclusive: 1.9e-09 M
CCN(CC)C(c1ccc(C)cc1)c1nnnn1C1CCCCC1 (stereo unspecified) | inconclusive: 1.1e-09 M
O=C(O)CCCNc1cc(N2CCC3(CC2)OCCO3)c2noc3c2c1C(=O)c1ccccc1-3 | active: 1e-08 M
O=C1CC(NCc2ccco2)C(=O)N1CCc1ccccc1 (stereo unspecified) | inconclusive: 2e-09 M
COc1ccc(OC)c(N)c1 | inconclusive: 3.8e-09 M
COc1ccccc1NC(=O)CSc1nc(N)cc(N)n1 | inconclusive: 1.2e-09 M
CC(c1ccccc1)C1CC(=O)N(c2ccc(C(=O)O)cc2)C1=O (stereo unspecified) | inconclusive: 1.1e-09 M
COc1ccc(-c2nc(C#N)c(NCCc3ccccc3)o2)cc1 | inconclusive: 2.7e-09 M
COC(=O)Cc1c(C)nc2nc(-c3ccc(OC)cc3)[nH]n2c1=O | inconclusive: 1.1e-09 M
CCOC(=O)N1CCC(NC(=O)CS(=O)(=O)Cc2nc(-c3cccc(OC)c3)oc2C)CC1 | inconclusive: 1.6e-09 M
Cc1cnn(Cc2ccccc2)c1N | inconclusive: 2.3e-09 M
CCNC(=O)c1ccccc1-c1nc(-c2ccccc2Cl)no1 | inconclusive: 2.3e-09 M
O=C(CN1C(=O)C2CC=CCC2C1=O)Nc1nc2ccccc2[nH]1 (stereo unspecified) | inconclusive: 1.1e-09 M
COCCNC(=O)c1cc2sc3ccccc3c2s1 | inconclusive: 1.1e-09 M
Cc1ccc(C2NC(=O)c3c(sc4c3CCN(C)C4)N2)o1 (stereo unspecified) | inactive
COc1ccc(CCNC(=O)CSc2nc(N)c3c(C)c(C)oc3n2)cc1OC | inconclusive: 1.4e-09 M
Nc1nc2c(c(=O)[nH]1)N(C=O)[C@H](CNc1ccc(C(=O)N[C@@H](CCC(=O)O)C(=O)O)cc1)CN2 | inconclusive: 1.1e-09 M
Cc1cc(C)cc(N(CC(=O)NC2CCCCC2)C(=O)CCC(=O)Nc2cc(C)ccn2)c1 | inconclusive: 2.6e-09 M

SMILES | max dye-equivalent concentration
FC(F)(F)c1ccccc1-c1nccc(NCCN2CCOCC2)n1 | inactive
O=C(NCC(=O)N(Cc1ccc(F)cc1)C(C(=O)NC1CCCC1)c1ccco1)c1ccco1 (stereo unspecified) | inconclusive: 2.8e-09 M
C=CCn1c(=S)[nH]c2ccc(Br)cc2c1=O | inactive
Cc1nc(N[C@@H](Cc2c[nH]c3ccccc23)C(=O)O)c2oc3ccccc3c2n1 | inconclusive: 1.1e-09 M
CCOC(=O)c1c(N)sc(C(=O)N(C)C)c1C | inconclusive: 1.1e-09 M
COc1ccc(NC(=O)C2CCCN2C(=O)NC2CCCCC2)cc1OC (stereo unspecified) | inconclusive: 1.6e-09 M
Cc1nc2cnc(N3CCNCC3)nc2n(Cc2ccc(F)cc2)c1=O | inactive
Oc1ccc(Oc2ncc(Cl)cc2Cl)cc1 | inconclusive: 2.3e-09 M
O=c1c(-c2ccc(F)c(F)c2)nc2cncnc2n1-c1ccccc1 | inactive
CCOc1cc(C(=O)O)cc(Cl)c1OCC#N | inconclusive: 1.8e-09 M
Nc1nonc1C(=O)NC(c1ccccc1)c1ccccc1 | inconclusive: 2.6e-09 M
N#Cc1cc(C(=O)c2cc(Br)ccc2O)cn(C2CC2)c1=O | inconclusive: 1.4e-09 M
CCCn1c(SCC(=O)Nc2ccccc2C(=O)OC)nc2c1c(=O)n(C)c(=O)n2C | inconclusive: 1.7e-09 M
O=C(Nc1c(F)cc(F)cc1Br)c1cccnc1 | inconclusive: 1.2e-09 M
CC(C)OC(=O)c1c(N)sc2c1CCCC2 | inconclusive: 1.1e-09 M
O=C(O)[C@@H]1CS[C@@]2(CCCN(Cc3ccccc3)C2)N1 | inactive
Cc1c(NC(=O)COC(=O)C2CC3C=CC2C3)c(=O)n(-c2ccccc2)n1C (stereo unspecified) | inconclusive: 1.4e-09 M
Cc1c(C(=O)c2no[n+]([O-])c2C(=O)c2cnn(C)c2C)cnn1C | inconclusive: 1.7e-09 M
CCn1c(COc2ccc(C)cc2)nnc1SCC(=O)Nc1cc(OC)ccc1OC | inconclusive: 1.1e-09 M
Nc1nc(-c2ccccc2)nc(-c2ccccc2O)n1 | inconclusive: 1.5e-09 M
COc1ccc(CCNC(=O)CN(C2CCCCC2)S(C)(=O)=O)cc1 | inconclusive: 2e-09 M
Cc1ccc2nsnc2c1NS(=O)(=O)c1c(C)ccc2nsnc12 | inconclusive: 1.5e-09 M

SMILES | max dye-equivalent concentration
CCCCNC(=O)c1ccc(NS(=O)(=O)c2ccccc2)cc1 | inconclusive: 1.2e-09 M
Cc1ccc2cc(CN(C(=O)c3cccnc3)C(C)C)c(=O)[nH]c2c1 | inconclusive: 1.7e-09 M
N#Cc1c(NCCO)nc(NCc2ccccc2)c2c1CCN(Cc1ccccc1)C2 | inconclusive: 2e-09 M
CCOC(=O)N1CCC(NC(=O)C(NS(=O)(=O)c2ccc3c(c2)CCN3C(C)=O)C(C)C)CC1 (stereo unspecified) | inconclusive: 1.7e-09 M
Cc1nc2cc(-c3ccc(F)cc3)nn2c(N2CCOCC2)c1C | inconclusive: 1.1e-09 M
CNCCCC12CCC(c3ccccc31)c1ccccc12 | inconclusive: 1.5e-09 M and inconclusive: 1.1e-09 M
CCn1c(=O)c(-[n+]2ccccc2)c(O)c2ccccc21 | inconclusive: 2.2e-09 M
Cc1cc(C)n(Cc2ccc(F)cc2)c(=O)c1C#N | inconclusive: 1.1e-09 M
Cc1noc(C)c1C(=O)Nc1sc(C)c(C)c1C#N | inconclusive: 1.5e-09 M
Cc1nc2sccn2c1-c1nc(-c2cc3ccccc3o2)cs1 | inconclusive: 3.6e-09 M
COc1cc(Cn2c(N)c(C#N)c3nc4ccccc4nc32)cc(OC)c1 | inactive
COC(=O)c1cccc(NC(=O)CSc2nnnn2C)c1 | inconclusive: 1.3e-09 M
N#CC(C(=O)NC1CC1)c1nc2ccccc2nc1N1CCCC1 (stereo unspecified) | inconclusive: 2.3e-09 M
COc1ccc2[nH]cc(CCNc3ncncc3-c3c(C)noc3C)c2c1 | inactive
COCCNC(=O)C(c1ccc(C)o1)N(Cc1cccs1)C(=O)c1snc(C(N)=O)c1N (stereo unspecified) | inactive
CC1CN(C(=O)CSc2nnc(-c3ccc(Cl)cc3)n2C)CC(C)O1 (stereo unspecified) | inconclusive: 1.2e-09 M
Cc1cccc(-n2nnnc2SCn2nnc3ccccc3c2=O)c1 | inconclusive: 1.5e-09 M
CCOC(=O)c1ccc(N2C(=O)CC(N3CCC(O)(c4ccc(Cl)cc4)CC3)C2=O)cc1 (stereo unspecified) | inconclusive: 1.4e-09 M
C=CCN(C(=O)CNC(=O)c1ccco1)C(C(=O)NC1CCCCC1)c1ccccc1F (stereo unspecified) | inconclusive: 1.5e-09 M
CCOC(=O)C(NC(=O)C1CCCN1C(=O)OCc1ccccc1)C(=O)OCC (stereo unspecified) | inconclusive: 1.1e-09 M
CCOC(=O)c1c(N)nn(C(=O)C(C)C)c1-c1ccccc1 | inconclusive: 1.6e-09 M
Cn1nnnc1P(=O)(c1ccccc1)c1ccccc1 | inconclusive: 1.3e-09 M

Copied from the list.
For max dye-equivalent concentration, C=CCN(C(=O)CNC(=O)c1ccco1)C(C(=O)NC1CCCCC1)c1ccccc1F (stereo unspecified) is entered as inconclusive: 1.5e-09 M
For max dye-equivalent concentration, Cc1noc(C)c1C(=O)Nc1sc(C)c(C)c1C#N is entered as inconclusive: 1.5e-09 M
For max dye-equivalent concentration, COCCNC(=O)C(c1ccc(C)o1)N(Cc1cccs1)C(=O)c1snc(C(N)=O)c1N (stereo unspecified) is entered as inactive
For max dye-equivalent concentration, Cc1ccc2cc(CN(C(=O)c3cccnc3)C(C)C)c(=O)[nH]c2c1 is entered as inconclusive: 1.7e-09 M
For max dye-equivalent concentration, Cc1nc2cc(-c3ccc(F)cc3)nn2c(N2CCOCC2)c1C is entered as inconclusive: 1.1e-09 M
For max dye-equivalent concentration, CCn1c(=O)c(-[n+]2ccccc2)c(O)c2ccccc21 is entered as inconclusive: 2.2e-09 M

(list continues)

SMILES | max dye-equivalent concentration
O=C(NC1CC2CCCC(C1)N2C(=O)NC1CCCCC1)c1ccccc1 (stereo unspecified) | inconclusive: 1.7e-09 M
CCOC(=O)CCc1c(C)nc(SCCN2CCCC2)c(C#N)c1C | inconclusive: 1.9e-09 M
Cc1ccc(CNC(=O)C2c3ccccc3C(=O)N(C)C2c2c[nH]c3ccccc23)o1 (stereo unspecified) | inconclusive: 1.3e-09 M
CN(C)c1ncc2ncc(=O)n(C3CC3)c2n1 | inconclusive: 1.2e-09 M
Cc1ccc(NC(=O)CCn2c(=O)oc3ccccc32)cc1 | inconclusive: 1.1e-09 M
Cc1ccc(C)c(N(CC(=O)NC2CCCC2)C(=O)CCCC(=O)Nc2ccccn2)c1 | inconclusive: 1.1e-09 M
CCn1c(SCC(=O)c2ccc(Cl)cc2)nnc1-c1ccoc1C | inconclusive: 1.1e-09 M
CC(=O)N(CC1CCCO1)c1nnc(-c2cnccn2)s1 (stereo unspecified) | inconclusive: 1.9e-09 M
COc1ccccc1Oc1ccc(S(=O)(=O)NCc2ccccn2)cc1 | inconclusive: 1.4e-09 M
CCOc1ccccc1NC(=O)CSc1ncnc2c1oc1ccccc12 | inconclusive: 1.1e-09 M
Cc1ccccc1OCCn1c(=O)oc2ccccc21 | inconclusive: 1.3e-09 M
CN(C(=O)COC(=O)C1c2ccccc2Oc2ccccc21)C1CCS(=O)(=O)C1 (stereo unspecified) | inconclusive: 1.1e-09 M
C=CCOc1cccc(C2/C(=C(/O)c3ccc(C)cc3)C(=O)C(=O)N2CCN2CCOCC2)c1 (stereo unspecified) | inconclusive: 1.7e-09 M
C[C@H]1[C@H](C)CC[C@@]2(C(=O)O)CC[C@]3(C)C(=CC[C@H]4[C@@]5(C)C[C@@H](O)[C@H](O)[C@@](C)(CO)[C@@H]5CC[C@@]43C)[C@@H]12 | inactive
C[C@@]12CCC(=O)C=C1CC[C@H]1[C@H]3CC[C@](O)(C(=O)CO)[C@]3(C)CC[C@@H]12 | inactive
Cc1cc(C)n(-c2nc3c(c(=O)n(C)c(=O)n3C)n2Cc2cccc(Br)c2)n1 | inconclusive: 1.4e-09 M
O=C(CN1C(=O)c2ccccc2C1=O)N1CCN(c2nnc(-c3ccccc3)c3ccccc23)CC1 | inconclusive: 1.6e-09 M
Sc1ccc2ccccc2c1CNCc1ccccc1 | inactive
Cc1ccc(C(=O)CSC2=C(C#N)C(c3ccco3)C3=C(CC(C)(C)CC3=O)N2)cc1 (stereo unspecified) | inconclusive: 1.8e-09 M
O=C(CSc1nc2ccsc2c(=O)n1-c1ccccc1)N1CCCC1 | inconclusive: 1.5e-09 M
